Source: PubChem BioAssay AID504834 (National Center for Advancing Translational Sciences (NCATS), 2011)
In all, about 320,000 compounds went through this assay and about 22,000 (6.9%) were called active. Inconclusive means that the source gave no clear call. Such entries were picked first, then a sample of the others. Calls come from the whole dose curve; as a rule, active = well fitted inhibition curve with a large enough effect; inconclusive = small, poorly fitted or top-dose-only effect, or another doubt; inactive = no such curve, though single readings can be large or run the other way. Potencies of inconclusive entries are doubtful fits and often do not repeat.

Test: Primary qHTS for delayed death inhibitors of the malarial parasite plastid, 96 hour incubation
Details: P. falciparum luciferase reporter growth; series mostly up to 28.7 µM; activity change, negative = inhibition: at the top concentration
How it was run: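 P. falciparum expressing integrated firefly luciferase grown in erythrocytes (2% hematocrit, 0.05% parasitemia final) with compounds for 96 hours at 37 C, 5% CO2. Growth inhibition read as loss of luminescence after adding luciferase detection reagent.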
% is set by controls: 0 for no effect and ±100 for the full control effect; potency is the fitted concentration of half-maximal effect.

Question: With `Cc1ccc2cc(CN(CC3CCCO3)C(=O)Nc3ccccc3F)c3nnnn3c2c1` (centres undefined) as the compound, how does the Potency read?
Answer: The Potency was inconclusive: 18.5 µM [inhibitor, single point].

Question: With `COc1c2c(cc3oc(=O)ccc13)OC(C)(C)C=C2` as the compound, how does the Potency read?
Answer: Its Potency is active: 0.0047 µM.

Question: Which Potency does the source give for `O=C(NCc1ccccc1)C1CCC(CNS(=O)(=O)c2cccs2)CC1` (centres undefined) here?
Answer: Its Potency is inconclusive: 0.208 µM [inhibitor, partial curve, poor fit].

Question: With `C=C1C(=O)O[C@@H]2C[C@@H](C)[C@@H]3C=CC(=O)[C@@]3(C)[C@@H](OC(C)=O)[C@H]12` as the compound, how does the Potency read?
Answer: Its Potency is active: 2.94 µM.

Question: For `CNC(=O)COc1ccccc1C(=O)Nc1ccc2c(c1)oc1ccccc12`, which Potency is on record?
Answer: The Potency was active: 4.65 µM.

Question: With `Cn1cc(/C=C/C(=O)N2CCCC(C(=O)c3ccc(C(C)(C)C)cc3)C2)cn1` (centres undefined) as the compound, how does the “activity change, negative = inhibition” value read?
Answer: The value was inactive: 19.5%.

Question: For `CCC(C(=O)NC1CCCCC1)n1c(SCc2ccccc2F)nc2ccncc21` (centres undefined), which Potency is on record?
Answer: Its Potency is active: 8.28 µM.

Question: Which “activity change, negative = inhibition” value does the source give for `COc1ccc(C(=O)NCc2nnc(SCC(=O)Nc3cc(C)on3)o2)cc1OC` here?
Answer: The value was inactive: 33.2%.

Question: With `CCOC(=O)[C@H]1[C@H]2COc3cc(OC)ccc3[C@@H]2N2C(=O)CN(CCc3c[nH]c4ccccc34)C(=O)[C@@]12C` as the compound, how does the Potency read?
Answer: The Potency was inconclusive: 2.33 µM [inhibitor, full curve].

Question: For `COCCNC(=O)CN1C(=O)COc2ccc(S(=O)(=O)N3CCCCCC3)cc21`, which “activity change, negative = inhibition” value is on record?
Answer: The value was inactive: 43.1%.

Question: For `CN(C(=O)CSc1nncn1C)C1CCCN(Cc2ccccc2F)C1` (centres undefined), which Potency is on record?
Answer: The Potency was inconclusive: 18.5 µM [inhibitor, single point].

Question: With `COc1ccc(NS(=O)(=O)c2cccc(C(=O)NCC(c3ccc(OC)cc3)N3CCOCC3)c2)cc1` (centres undefined) as the compound, how does the Potency read?
Answer: Its Potency is inconclusive: 10.4 µM [inhibitor, partial curve].

Question: For `CS(=O)(=O)NN1C(=O)c2ccccc2NC1c1ccccc1` (centres undefined), which Potency is on record?
Answer: Its Potency is inconclusive: 10.4 µM [inhibitor, partial curve].

Question: Which “activity change, negative = inhibition” value does the source give for `COc1ccc(CNC(=O)c2n[nH]c3ccccc23)cc1OC` here?
Answer: The value was inactive: 7.87%.

Question: With `COc1ccccc1NC(=O)CSc1nc2c(sc3ccccc32)c(=O)n1CCN(C)C` as the compound, how does the Potency read?
Answer: The Potency was inconclusive: 18.5 µM [inhibitor, single point].

Question: Which Potency does the source give for `CCn1c(=N)c(C(=O)OC)cc2c(=O)n3ccccc3nc21` here?
Answer: Its Potency is inconclusive: 18.5 µM [inhibitor, single point].

Question: Which Potency does the source give for `COc1ccc(-c2ncccc2O)cc1` here?
Answer: The Potency was inconclusive: 13.1 µM [inhibitor, partial curve, poor fit].

Question: Which Potency does the source give for `COC(=O)c1ccc(Oc2nc(NC(C)C)nc(N(C)C)n2)cc1` here?
Answer: Its Potency is inconclusive: 18.5 µM [inhibitor, single point].

Question: Which Potency does the source give for `NC(=O)c1c(NC(=O)Cc2ccccc2)sc2c1CCN(Cc1ccccc1)C2` here?
Answer: The Potency was inconclusive: 16.5 µM [inhibitor, single point].
